Laboratory results: the supplement of paper PMC3334620
In all, about 33,000 sequences were measured (“E-score (-0.5 to 0.5)”: median about -0.015, highest 2% from about 0.3 on). This is one part of the list.

target: T1, Abf1 (UniProt P14164); assay: PBM E-score (8-mer binding enrichment) (E-score (-0.5 to 0.5)); higher = stronger / more preferred TF binding; conditions: protein concentration: 200 nM; construct: GST-full length
T1 sequence: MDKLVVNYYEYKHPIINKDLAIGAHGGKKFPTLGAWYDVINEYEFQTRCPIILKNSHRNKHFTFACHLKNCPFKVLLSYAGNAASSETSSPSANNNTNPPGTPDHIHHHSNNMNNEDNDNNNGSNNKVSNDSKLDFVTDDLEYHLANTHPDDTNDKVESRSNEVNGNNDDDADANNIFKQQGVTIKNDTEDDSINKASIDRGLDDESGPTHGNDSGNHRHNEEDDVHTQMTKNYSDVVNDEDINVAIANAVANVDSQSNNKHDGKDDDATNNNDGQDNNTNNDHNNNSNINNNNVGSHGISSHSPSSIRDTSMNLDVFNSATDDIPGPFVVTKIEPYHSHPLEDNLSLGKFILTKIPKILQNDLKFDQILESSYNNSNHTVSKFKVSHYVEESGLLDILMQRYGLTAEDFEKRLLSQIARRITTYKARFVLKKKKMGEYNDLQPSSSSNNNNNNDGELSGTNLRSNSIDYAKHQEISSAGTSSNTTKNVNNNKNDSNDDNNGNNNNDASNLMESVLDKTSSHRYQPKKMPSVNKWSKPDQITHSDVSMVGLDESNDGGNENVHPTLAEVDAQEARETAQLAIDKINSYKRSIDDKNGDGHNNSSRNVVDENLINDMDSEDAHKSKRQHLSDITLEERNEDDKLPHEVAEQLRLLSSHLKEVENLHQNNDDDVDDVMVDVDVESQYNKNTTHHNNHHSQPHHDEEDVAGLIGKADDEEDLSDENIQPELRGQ
Summary of the method: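 Each ungapped eight-base word and its reverse complement, pooled, received an E-score from the Universal PBM Analysis Suite. Underlying scans, normalised with masliner, recorded fluorescent anti-GST bound to GST-tagged yeast transcription factors. These were applied at about 100-200 nM to universal all-10-mer Agilent arrays double-stranded by primer extension.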

| Sequence | PBM E-score |
| --- | --- |
| CCGATTCG | -0.13 |
| ACGGTCAA | 0.0179 |
| CGTCATCC | 0.167 |
| AAAGGATC | 0.0169 |
| CCTGATCA | 0.112 |
| GGTATTAA | 0.0692 |
| AGACTGAG | -0.187 |
| CGGACCAC | -0.0306 |
| CATTTGTA | 0.0925 |
| AAAGTTAC | 0.0908 |
| AGGGGCAT | -0.0652 |
| TACAAATA | 0.0111 |
| AAAGACAT | -0.0189 |
| AGCCCGCT | -0.277 |
| CGACCATA | 0.00622 |
| ATACGTCG | 0.175 |
| CGAACTAA | 0.111 |
| CGCCTGCA | -0.0961 |
| ACGGACTG | 0.0212 |
| AAAAACCA | -0.0169 |
| GACGACGA | 0.251 |
| GGAAATCC | -0.0758 |

| Sequence | PBM E-score |
| --- | --- |
| CATGTGAG | 0.0113 |
| GCGATAAC | 0.158 |
| CCGTATGC | 0.0398 |
| AACAGATG | -0.135 |
| AGCCCTCG | -0.055 |
| CAGTTAAA | 0.0855 |
| TTCTTAAA | -0.0951 |
| AACCTAAG | 0.0698 |
| GCGCGACC | 0.0631 |
| GTCCATGA | 0.0241 |
| CAGAAGGA | -0.295 |
| AACTAGGG | -0.0853 |
| ACAAAAAA | 0.0295 |
| AAACAAAA | 0.0765 |
| TACCTAGA | 0.026 |
| CCCGCAAA | -0.0869 |
| CAGGAAAA | 0.0548 |
| CGCGAGAA | -0.324 |
| CTCGCCTA | 0.00128 |
| CACTGTCA | 0.234 |
| ATTATGTG | 0.174 |
| ACTTATTG | 0.0459 |

| Sequence | PBM E-score |
| --- | --- |
| AAGGGTTC | -0.192 |
| AAACTGAA | 0.00963 |
| ACGACCGG | -0.00676 |
| CCTTTACA | -0.209 |
| CCACGATA | 0.143 |
| CGAGTTCA | -0.0513 |
| AAGGATAC | -0.0825 |
| GGGCCTAA | -0.206 |
| ATGTCGTC | 0.29 |
| ACTTCGCC | 0.152 |
| ACCTCGTG | 0.225 |
| CTCTAATA | 0.175 |
| AACAGCCA | -0.0714 |
| CTCTGTTA | -0.106 |
| GTGTGGAA | -0.00899 |
| CCATGGAA | -0.104 |
| AATGACCT | 0.223 |
| ATTGGAAC | 0.094 |
| GCACTGTA | -0.0736 |
| TAGTATCA | 0.289 |
| GAAAGGAA | -0.113 |
| AGGTGATG | 0.163 |

Reprinted from the listing for reference:

| Sequence | PBM E-score |
| --- | --- |
| ACGACCGG | -0.00676 |
| CCTTTACA | -0.209 |
| CCACGATA | 0.143 |
| CGAGTTCA | -0.0513 |
| AAGGATAC | -0.0825 |

Remaining list, next part.

| Sequence | PBM E-score |
| --- | --- |
| CTACATCA | 0.196 |
| AGCGAGAG | 0.0522 |
| ATAGACGG | 0.246 |
| CTGACCAG | -0.105 |
| TAACTGTA | -0.0884 |
| AGTTACGC | -0.0715 |
| GCCACGAC | 0.00175 |
| AGTAGAGG | -0.239 |
| ACCTAATC | 0.111 |
| AAAGATAT | 0.208 |
| GAAACATC | -0.00063 |
| CCAGATTC | -0.279 |
| CACGCCCG | 0.131 |
| TCGCAGCA | 0.074 |
| GAATGCCC | -0.0158 |
| ATGTGGAG | -0.0472 |
| ATTGCGCG | 0.0782 |
| CATAAGGC | 0.16 |
| ATCATTTA | 0.305 |
| GACACGGC | 0.184 |
| GGAAGCAA | -0.0647 |
| AAGTTTAA | -0.0962 |

Part of the list above in a different format:
AACCTAAG
  PBM E-score: 0.0698
ATTATGTG
  PBM E-score: 0.174

Following part:

| Sequence | PBM E-score |
| --- | --- |
| CGAACGTC | 0.141 |
| AAAGGGTT | -0.171 |
| ACATACAA | -0.0537 |
| GACCTGCA | -0.0976 |
| CTCACGTA | -0.0341 |
| AATACAGT | -0.0854 |
| AACGAGAC | 0.154 |
| CATACAAA | 0.102 |
| AGGTGCTG | -0.099 |
| AAAATTAG | 0.0238 |
| AAACCCTG | 0.0249 |
| TACCCCAA | -0.119 |
| CCCCAGCG | -0.146 |
| CACTCGGG | 0.00587 |
| TCGCATAA | 0.205 |
| GTGATACA | 0.311 |
| AGATTGCC | -0.238 |
| CGACAATA | 0.213 |
| CATCCGTC | 0.154 |
| GTCCTTCA | 0.00811 |
| CTCCCAAG | -0.211 |
